Laboratory results published in article PMC12519263 (ACS Pharmacology & Translational Science, 2025).

Test system: Itgb6, Col1a1, Col3a1, Fn1
Assay: Gene expression by qPCR on lung tissues of BLM mice (Study #1)
Assay type: in vivo, C57Bl/6 mice
Details: BLM vs Saline, lung tissue

Bleomycin hydrochloride [BLM]
Log2FC COL1A1 (14d): 3.5 | Log2FC COL3A1 (14d): 2.7 | Log2FC FN1 (14d): 3.3 | Log2FC ITGB6 (14d): 0.92 | Log2FC COL1A1 (21d): 3.2 | Log2FC COL3A1 (21d): 2.6 | Log2FC FN1 (21d): 3.6 | Log2FC ITGB6 (21d): 0.98
